The text below walks through data of US20210363245A1 (US Dept. of Health and Human Services, published 2021).

In the assay the target is T1, CD27 (human, UniProt P26842 20-260).
T1 construct: whole, on cells
T1 sequence (looked up): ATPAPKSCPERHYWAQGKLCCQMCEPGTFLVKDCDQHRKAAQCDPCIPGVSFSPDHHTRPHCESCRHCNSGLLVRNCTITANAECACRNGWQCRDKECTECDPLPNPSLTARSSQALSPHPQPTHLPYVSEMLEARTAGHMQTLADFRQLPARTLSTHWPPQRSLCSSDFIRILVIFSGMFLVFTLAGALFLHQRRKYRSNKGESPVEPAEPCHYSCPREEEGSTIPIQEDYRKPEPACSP
As to the kind of experiment: labeled CAR T cells screened on HEK293 cells expressing 5,647 human plasma membrane proteins (Retrogenix). Here is the method:
HEK293 cells were transfected to express 5,647 human plasma membrane proteins. This allowed for screening against these human proteins for reactivity with antibody-based reagents (screening was performed by a third party, Retrogenix™). Untransduced human T cells and T cells from the same donor that expressed Hu20-CD8BBZ were used. The Hu20-CD8BBZ T cells were labeled and then used to screen the 5,647 human plasma membrane proteins.

B1: Hu20-CD8BBZ (other)
chain: DIVMTQTPHSSPVTLGQPASISCRSSQSLVSRDGNTYLSWLQQRPGQPPRLLIYKISNRFSGVPNRFSGSGAGTDFTLKISRVKAEDVGVYYCMQATQFPLTFGQGTRLEIKGGGGSGGGGSGGGGSEVQLVQSGAEVKKPGESLKISCKGSGYSFTSYWIGWVRQMPGKGLEWMGIIYPGDSDTRYSPSFQGQVTISADKSISTAYLQWSSLKASDTAMYYCARQGDFWSGYGGMDVWGQGTTVTVSSFVPVFLPAKPTTTPAPRPPTPAPTIASQPLSLRPEACRPAAGGAVHTRGLDFACDIYIWAPLAGTCGVLLLSLVITLYCNHRNKRGRKKLLYIFKQPFMRPVQTTQEEDGCSCRFPEEEEGGCELRVKFSRSADAPAYQQGQNQLYNELNLGRREEYDVLDKRRGRDPEMGGKPRRKNPQEGLYNELQKDKMAEAYSEIGMKGERRRGKGHDGLYQGLSTATKDTYDALHMQALPPR
notes: CAR on transduced human T cells; also called 2.1.2-CD8BBZ; 2.1.2BB
For the molecule B1, the binding result was “binds”.
